Literature values in US10039703B2, “Composition comprising resveratrol and melatonin for reducing hair loss and/or increasing hair regrowth” (Triple Hair Inc., priority 2015, dated 2018).
For at least one compound, name, drawing or mass did not settle the structure.

Tested on: hair loss
Conditions: topical form

SMILES: Nc1cc(N2CCCCC2)nc(N)[n+]1[O-] [minoxidil]
- effectiveness in promoting regrowth of the hair: less than 40%
